In this experiment the target is endogenous PSTPIP1 (mouse (endogenous in osteoclasts)) (UniProt P97814). The experiment can be described thus: co-IP; endogenous PSTPIP1 immunoprecipitated from osteoclast lysate (1% NP-40, 0.1% deoxycholate, 150 mM NaCl) with specific antibody and Protein G-sepharose, 4°C; western blotting. On the technique in general: Immunoblotting shows a protein as a band on a membrane.

The chains behind the UniProt entries cited, without tags or fusion partners.
UniProt P97814: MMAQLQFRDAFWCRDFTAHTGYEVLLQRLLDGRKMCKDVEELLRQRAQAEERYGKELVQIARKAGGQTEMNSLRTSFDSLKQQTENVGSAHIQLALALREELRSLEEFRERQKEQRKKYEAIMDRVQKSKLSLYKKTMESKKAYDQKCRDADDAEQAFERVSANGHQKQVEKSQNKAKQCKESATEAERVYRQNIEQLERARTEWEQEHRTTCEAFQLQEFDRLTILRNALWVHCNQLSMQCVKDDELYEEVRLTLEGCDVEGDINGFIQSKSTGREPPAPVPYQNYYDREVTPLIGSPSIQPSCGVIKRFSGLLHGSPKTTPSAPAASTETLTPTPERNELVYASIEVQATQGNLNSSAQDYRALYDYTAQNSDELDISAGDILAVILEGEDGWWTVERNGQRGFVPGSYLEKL

The source of these data is publication PMC5070766.

Results are given in words; binding and its absence hold for the method and conditions named. In cells and extracts the contact can be indirect. Some entries that bind do so weakly or less than the wild type.

Regarding “Tyrosine-protein phosphatase non-receptor type 6 (from UniProt P29351-1 1-595) (enzyme)”, the binding entry is given as “binds”.

B1: Pl(3,4,5)P3 5-phosphatase 1 (enzyme, UniProt Q9ES52 1-1191)
chain: MPAMVPGWNHGNITRSKAEELLSRAGKDGSFLVRASESIPRAYALCVLFRNCVYTYRILPNEDDKFTVQASEGVPMRFFTKLDQLIDFYKKENMGLVTHLQYPVPLEEEDAIDEAEEDTVESVMSPPELPPRNIPMSAGPSEAKDLPLATENPRAPEVTRLSLSETLFQRLQSMDTSGLPEEHLKAIQDYLSTQLLLDSDFLKTGSSNLPHLKKLMSLLCKELHGEVIRTLPSLESLQRLFDQQLSPGLRPRPQVPGEASPITMVAKLSQLTSLLSSIEDKVKSLLHEGSESTNRRSLIPPVTFEVKSESLGIPQKMHLKVDVESGKLIVKKSKDGSEDKFYSHKKILQLIKSQKFLNKLVILVETEKEKILRKEYVFADSKKREGFCQLLQQMKNKHSEQPEPDMITIFIGTWNMGNAPPPKKITSWFLSKGQGKTRDDSADYIPHDIYVIGTQEDPLGEKEWLELLRHSLQEVTSMTFKTVAIHTLWNIRIVVLAKPEHENRISHICTDNVKTGIANTLGNKGAVGVSFMFNGTSLGFVNSHLTSGSEKKLRRNQNYMNILRFLALGDKKLSPFNITHRFTHLFWLGDLNYRVELPTWEAEAIIQKIKQQQYSDLLAHDQLLLERKDQKVFLHFEEEEITFAPTYRFERLTRDKYAYTKQKATGMKYNLPSWCDRVLWKSYPLVHVVCQSYGSTSDIMTSDHSPVFATFEAGVTSQFVSKNGPGTVDSQGQIEFLACYATLKTKSQTKFYLEFHSSCLESFVKSQEGENEEGSEGELVVRFGETLPKLKPIISDPEYLLDQHILISIKSSDSDESYGEGCIALRLETTEAQHPIYTPLTHHGEMTGHFRGEIKLQTSQGKMREKLYDFVKTERDESSGMKCLKNLTSHDPMRQWEPSGRVPACGVSSLNEMINPNYIGMGPFGQPLHGKSTLSPDQQLTAWSYDQLPKDSSLGPGRGEGPPTPPSQPPLSPKKFSSSTANRGPCPRVQEARPGDLGKVEALLQEDLLLTKPEMFENPLYGSVSSFPKLVPRKEQESPKMLRKEPPPCPDPGISSPSIVLPKAQEVESVKGTSKQAPVPVLGPTPRIRSFTCSSSAEGRMTSGDKSQGKPKASASSQAPVPVKRPVKPSRSEMSQQTTPIPAPRPPLPVKSPAVLQLQHSKGRDYRDNTELPHHGKHRQEEGLLGRTAMQ
B1: the binding entry was “binds”.

B2: Pl(3,4,5)P3 5-phosphatase 2 (enzyme, UniProt Q6P549 1-1257)
chain: MASVCGTPSPGGALGSPAPAWYHRDLSRAAAEELLARAGRDGSFLVRDSESVAGAFALCVLYQKHVHTYRILPDGEDFLAVQTSQGVPVRRFQTLGELIGLYAQPNQGLVCALLLPVEGEREPDPPDDRDASDVEDEKPPLPPRSGSTSISAPVGPSSPLPTPETPTTPAAESTPNGLSTVSHEYLKGSYGLDLEAVRGGASNLPHLTRTLVTSCRRLHSEVDKVLSGLEILSKVFDQQSSPMVTRLLQQQSLPQTGEQELESLVLKLSVLKDFLSGIQKKALKALQDMSSTAPPAPLQPSIRKAKTIPVQAFEVKLDVTLGDLTKIGKSQKFTLSVDVEGGRLVLLRRQRDSQEDWTTFTHDRIRQLIKSQRVQNKLGVVFEKEKDRTQRKDFIFVSARKREAFCQLLQLMKNRHSKQDEPDMISVFIGTWNMGSVPPPKNVTSWFTSKGLGKALDEVTVTIPHDIYVFGTQENSVGDREWLDLLRGGLKELTDLDYRPIAMQSLWNIKVAVLVKPEHENRISHVSTSSVKTGIANTLGNKGAVGVSFMFNGTSFGFVNCHLTSGNEKTTRRNQNYLDILRLLSLGDRQLSAFDISLRFTHLFWFGDLNYRLDMDIQEILNYISRREFEPLLRVDQLNLEREKHKVFLRFSEEEISFPPTYRYERGSRDTYAWHKQKPTGVRTNVPSWCDRILWKSYPETHIICNSYGCTDDIVTSDHSPVFGTFEVGVTSQFISKKGLSKTSDQAYIEFESIEAIVKTASRTKFFIEFYSTCLEEYKKSFENDAQSSDNINFLKVQWSSRQLPTLKPILADIEYLQDQHLLLTVKSMDGYESYGECVVALKSMIGSTAQQFLTFLSHRGEETGNIRGSMKVRVPTERLGTRERLYEWISIDKDDTGAKSKVPSVSRGSQEHRSGSRKPASTETSCPLSKLFEEPEKPPPTGRPPAPPRAVPREEPLNPRLKSEGTSEQEGVAAPPPKNSFNNPAYYVLEGVPHQLLPLEPPSLARAPLPPATKNKVAITVPAPQLGRHRTPRVGEGSSSDEDSGGTLPPPDFPPPPLPDSAIFLPPNLDPLSMPVVRGRSGGEARGPPPPKAHPRPPLPPGTSPASTFLGEVASGDDRSCSVLQMAKTLSEVDYAPGPGRSALLPNPLELQPPRGPSDYGRPLSFPPPRIRESIQEDLAEEAPCPQGGRASGLGEAGMGAWLRAIGLERYEEGLVHNGWDDLEFLSDITEEDLEEAGVQDPAHKRLLLDTLQLSK
On to B2, for which the binding result is reported as “binds”.
